## Library screening results

Measurements from “University of Dundee, Small-Polar-MMV Screening Library” (2021), ChEMBL document CHEMBL3988442.

Results are given as percent effect. The controls that fix the scale are not given in the record; negative values are as filed. The compounds are a random part of those screened.

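Whole-cell assay for inhibitors of Mycobacterium tuberculosis growth, labelled Cornell in the record; the read-out is not stated. The concentration is filed as 10 mM, unlikely as a test dose, so the dose is not known. Higher means stronger inhibition (inferred from two other growth screens of the library). Of about 53,000 compounds tested this way, about 900 (1.7%) reached 50% or more in at least one test.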

structure	percent effect
O=C1CN(C(=O)C2CCCCC2)CC(O)CN1Cc1ccco1 (centres unmarked)	8.115%
CC1(C(=O)N2CCOCC2)CN(Cc2ncc[nH]2)CCO1 (centres unmarked)	-25.84%
Cc1n[nH]c(C)c1C1CCCN1C(=O)NCCSC(C)(C)C (centres unmarked)	6.775%
[H][C@@]12CCN(Cc3c(C)noc3C)C[C@@]1([H])O[C@@H](c1nccs1)C2	3.66%
CN(Cc1ccccn1)C(=O)C(c1ccccc1)N1CCSCC1 (centres unmarked)	-7.353%
COc1cc(Oc2cnc3ccccc3n2)ccc1CN1CCCC1	89.59%
CCOC(=O)CNC(=O)C1CN(C(=O)c2cnccn2)C1	-24.04%
CC(C)NC(=O)C1(Cc2ccccc2-c2cncnc2)CCCNC1 (centres unmarked)	-1.5%
CC(C)(NC(=O)NCc1cccc(Br)c1)C(=O)O	-24.72%
O=C(O)C(F)(F)F.[H][C@@]12CCN(c3ccncn3)C[C@@]1([H])O[C@@H](C(=O)NCCOC)C2	26.18%
Cc1nn2c(NC(=O)CSc3ncccn3)csc2nc1=O	-3.062%
[H][C@@]12C[C@H](NC(=O)c3cc4nc(C)cc(C)n4n3)CN1CCN(C)C2	-0.375%
O=C1NCCCC1NC(=O)C1(c2cccc(Cl)c2)CCC1 (centres unmarked)	-12.68%
O=C1CCCN1CCN1CCCCC1Cn1cccn1 (centres unmarked)	14.7%
Cn1ccc2cc(CC3COCCN(C(=O)c4ccccn4)C3)ccc21 (centres unmarked)	-6.118%
COc1ccc(C)c2c1N(C(=O)c1cnc(C)s1)CCC2	6.087%
Cc1cnn(CCNCC(=O)NCCOc2ccccc2)c1	-30.29%
COCCN1CCOCC12CCN(C(=O)c1c[nH]c3ccccc13)CC2	2.036%
COc1ccccc1CN(Cc1cccs1)S(=O)(=O)N(C)C(C)C	41.56%
CCOC(=O)[C@H]1CNC[C@@H]1C(F)(F)F	17.21%
Cn1ccnc1CN(CCCO)CC(F)(F)F	-6.617%
CSC(C)(C)CNC(=O)Nc1cccc(-c2nccn2C)c1	12.56%
COc1ccc2cc(C(=O)NCCNc3ccc(C)nn3)[nH]c2c1	-1.824%
CNS(=O)(=O)c1ccc(C(=O)N2CCCCC2c2ccc(C)cc2)o1 (centres unmarked)	0.3833%
Cc1nn(C)cc1-c1ccnc(N2CCN(c3cnccn3)CC2)n1	-18.84%
COc1cccc2c1OCC(NC(=O)NCc1cccs1)C2 (centres unmarked)	4.508%
N#Cc1cnc(N2CCC3(CC2)OCCO3)nc1N	-50.84%
COc1c(Br)c(C(=O)NC2CC2)nn1C	20.51%
Cc1cc(-c2cnn(CCNC(=O)Cc3ccccn3)c2C2CC2)on1	-49.86%
CC(C)N1CCC2(CCN(C(=O)c3cccnc3)CC2)C1.O=C(O)C(F)(F)F.O=C(O)C(F)(F)F	-3.69%
[H][C@@]12CCN(C(=O)c3cnoc3C)C[C@]1([H])[C@@H](CN1CCCC1)OC2	-23.95%
CCN1CCc2cc(-c3cncn3CC(=O)NC(C)(C)C)ccc21.Cl	18%
CNc1nc2c(s1)C(c1ccccc1F)CC(=O)N2 (centres unmarked)	-4.667%
Cc1nn(C2CCCC2)c2nc(C(C)(C)CN3CCN(C)CC3)[nH]c12	18.98%
CCc1nnc(CN(C)c2cc(C)nc3c(C)c(C)nn23)o1	-22.97%
Cl.Cn1ccnc1C1(O)CCN(C(=O)Cc2ccccc2)CC1	8.388%
CC(=O)c1ccc(N2CCCC(CO)(CCc3ccccc3)C2)nc1 (centres unmarked)	16.34%
CCCc1noc(C2CC(=O)N(C(C)(C)C)C2)n1 (centres unmarked)	17.37%
CCCNC(=O)C1CCN(CC2(O)CCC(C)CC2)CC1 (centres unmarked)	-5.624%
[H][C@@]12CCN(Cc3cnn(C)c3)C[C@@]1([H])O[C@H](c1nc(C3CC3)cs1)C2	-52.17%
CC(=O)N1CCC(NC(C)c2cnn(-c3ccc(F)cc3F)c2C)CC1 (centres unmarked)	10.6%
Cc1cccc(CNC(=O)C2CCC(=O)N(Cc3ccccc3F)C2)n1 (centres unmarked)	18.38%
Cc1ccc(-c2cc(C(=O)NCCC3=CCCCC3)[nH]n2)o1	52.86%
Cc1nc(CN2CCc3nc(NC(C)C)nc(C)c3C2)cs1	38.07%
Cn1cccc1C(CNC(=O)c1ccc(F)cc1F)N1CCCCCC1 (centres unmarked)	2.609%
COc1cc(-c2n[nH]c(CO)n2)cc(OC)c1OC	-12.55%
CCN(CC)C(=O)N1CCOCC1c1c(C)nn(C)c1C (centres unmarked)	-8.751%
CCN(Cc1noc(CC(C)C)n1)Cc1ccccc1Cl	16.64%
CCOC(=O)C1CCN(C(=O)c2cnn(-c3ccc(C)cc3)c2N)CC1	-6.526%
CC(C)NC(=O)c1nnn(-c2cccc(F)c2)c1C1CC1	18.95%
[H][C@]12CN(Cc3ncccn3)CC[C@@]1(O)CCN(C(=O)C1CCC1)C2	10.03%
Cc1cn2c(n1)CCC(NC(=O)CCC(F)(F)F)C2 (centres unmarked)	17.91%
Cc1cn(CC(=O)NC2CCN(C(C)C)CC2)c2ccccc12	-3.434%
[H][C@@]12CCN(S(=O)(=O)CC)[C@]1([H])CC[C@@H](c1nnc(C)o1)O2	15.49%
CC(C)c1nn(C)c(N(C)C)c1CNC1CCN(CC2CC2)CC1	58.14%
O=C(O)C(F)(F)F.O=C(O)C(F)(F)F.[H][C@@]12CN(CCOC)C[C@]1([H])[C@@H](OC)CCN2S(=O)(=O)c1cccnc1	21.64%
CCOc1cccc2c1OCC(=O)N(c1ccc3c(c1)OCCO3)C2	8.501%
O=C(NCCc1ccccc1Cl)NCC1(O)CCSC1 (centres unmarked)	7.506%
CCCN(CCO)S(=O)(=O)c1ccc2[nH]c(=O)[nH]c2c1	11.31%
CC(CO)CN(Cc1ccccc1)Cc1cnc2ccccc2n1 (centres unmarked)	2.799%
CN(CC(=O)NCC(F)(F)F)Cc1nc2c(s1)CCCC2	28.74%
COc1ccccc1-n1cc(C(=O)NCCCn2nc(C)nc2C)cn1	14.31%
CC(C)c1nn(C)c(N2CCOCC2)c1CNC(C)c1ccccn1 (centres unmarked)	-6.225%
COC(=O)COn1c(SC(C)C)nc2ccccc2c1=O	75.74%
N[C@H]1CC[C@@H](n2cc(C(=O)N[C@H]3CCCc4ccccc43)nn2)CC1	52.81%
CN(C)Cc1cc(=O)n2c(n1)CN(C(=O)Cc1cccs1)CCC2.O=C(O)C(F)(F)F	-6.461%
CC(Cn1cccn1)NC(=O)NCCc1cccs1 (centres unmarked)	-0.6364%
Cc1nc(N)c2ccc(C3CCCCN3)nc2n1.Cl (centres unmarked)	9.021%
CN(CC(F)(F)F)C(=O)CNC(=O)N1CCC(N2CCCC2)C1 (centres unmarked)	8.882%
CCN(CC)Cc1nc2c(o1)CN(C(=O)c1ccncc1F)C2	9.274%
[H][C@]12CC[C@]([H])(CN(c3ncccc3F)C1)N(CC=C(C)C)C2=O	8.723%
CSC1(CNC(=O)NC(C)c2ccc(F)c(F)c2)CCOCC1 (centres unmarked)	6.372%
COc1ccccc1-c1ccccc1CC1(C(=O)O)CCNCC1	3.277%
COC(=O)CCC(=O)N1CCc2nc(C(=O)N3CCOCC3)sc2CC1	29.42%
O=C(O)c1ccnc(-c2ccnc(N3CCCCCC3)n2)c1	-33.82%
O=C(Nc1ccccc1Oc1cccc(F)c1)C1CCS(=O)(=O)C1 (centres unmarked)	23.99%
CCOCC1CN(CC2CCC2)Cc2nnn(CC3CC3)c21 (centres unmarked)	-5.35%
O=C(O)C(c1ccc2c(c1)OCO2)N1CCCCCC1 (centres unmarked)	0.924%
CSc1cccc(CN2CCC(CCC(=O)NC3CC3)CC2)c1	-9.223%
CN1C(=O)CCC12CCCN(C(=O)c1ccoc1)C2 (centres unmarked)	10.35%
O=C(CC1CCCC1)N1CCC2(CCN2Cc2ccc(F)cc2)C1.O=C(O)C(F)(F)F (centres unmarked)	36.62%
O=C(COC1CCCCC1)NS(=O)(=O)c1ccc2c(c1)OCCCO2	-16.63%
O=C(NCC1CCS(=O)(=O)C1)N(Cc1ccco1)C1CC1 (centres unmarked)	-31.89%
Cc1nc(CNC(=O)[C@@H]2CCCN2C(=O)OC(C)(C)C)cs1	-59.05%
CC[C@@H]1C[C@H](C(F)(F)F)n2nc(C3CCN(S(=O)(=O)CC)CC3)cc2N1	-57.59%

The first 10 entries again:

| structure | percent effect |
|---|---|
| `O=C1CN(C(=O)C2CCCCC2)CC(O)CN1Cc1ccco1` (centres unmarked) | 8.115% |
| `CC1(C(=O)N2CCOCC2)CN(Cc2ncc[nH]2)CCO1` (centres unmarked) | -25.84% |
| `Cc1n[nH]c(C)c1C1CCCN1C(=O)NCCSC(C)(C)C` (centres unmarked) | 6.775% |
| `[H][C@@]12CCN(Cc3c(C)noc3C)C[C@@]1([H])O[C@@H](c1nccs1)C2` | 3.66% |
| `CN(Cc1ccccn1)C(=O)C(c1ccccc1)N1CCSCC1` (centres unmarked) | -7.353% |
| `COc1cc(Oc2cnc3ccccc3n2)ccc1CN1CCCC1` | 89.59% |
| `CCOC(=O)CNC(=O)C1CN(C(=O)c2cnccn2)C1` | -24.04% |
| `CC(C)NC(=O)C1(Cc2ccccc2-c2cncnc2)CCCNC1` (centres unmarked) | -1.5% |
| `CC(C)(NC(=O)NCc1cccc(Br)c1)C(=O)O` | -24.72% |
| `O=C(O)C(F)(F)F.[H][C@@]12CCN(c3ccncn3)C[C@@]1([H])O[C@@H](C(=O)NCCOC)C2` | 26.18% |